PubChem BioAssay AID504834 (National Center for Advancing Translational Sciences (NCATS), 2011)
In all, about 320,000 compounds went through this assay and about 22,000 (6.9%) were called active. The shares of active, inactive and inconclusive entries below differ from those in the screen. The call rests on the fitted dose curve; in most records, active means well fitted inhibition curve with a large enough effect; inconclusive means small, poorly fitted or top-dose-only effect, or another doubt; inactive means no such curve, though single readings can be large or run the other way. Potencies beside an inconclusive call are fits to weak or partial responses and may not hold up.

Assay: Primary qHTS for delayed death inhibitors of the malarial parasite plastid, 96 hour incubation
Details: P. falciparum luciferase reporter growth; series mostly up to 28.7 µM; activity change, negative = inhibition: at the top concentration
Outline: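 P. falciparum expressing integrated firefly luciferase grown in erythrocytes (2% hematocrit, 0.05% parasitemia final) with compounds for 96 hours at 37 C, 5% CO2. Growth inhibition read as loss of luminescence after adding luciferase detection reagent.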
On the % scale 0 is the no-effect control and ±100 the full control effect; potency means the concentration at half of the fitted maximal effect.

Q: Which Potency does the source give for O=C(COc1ccc(Cl)cc1)N(Cc1ccccc1)c1ccccn1 here?
A: inconclusive: 10.4 µM [inhibitor, partial curve]

Q: Which “activity change, negative = inhibition” value does the source give for CC(=O)Nc1scc(-c2ccccc2)[n+]1-c1ccc(C)cc1 here?
A: inactive: 49.9%

Q: For OC[C@H]1NC[C@@H](O)[C@@H]1O, which Potency is on record?
A: inconclusive: 0.0657 µM [inhibitor, full curve, poor fit]

Q: Which “activity change, negative = inhibition” value does the source give for COCCCNC(=O)c1ccc(CSCc2ccc(C)cc2)o1 here?
A: inactive: 20%

Q: For CC(C)c1cc2cc3ccc(=O)oc3cc2o1, which Potency is on record?
A: inconclusive: 0.928 µM [inhibitor, full curve]

Q: With COc1ccc2[nH]c3c(=O)n(/N=C/c4ccc(OC)c(CN5CCCC5)c4)c(C)nc3c2c1 as the molecule, how does the Potency read?
A: inconclusive: 11.7 µM [inhibitor, partial curve, poor fit]

Q: With c1c(CC2CCCC2)nnn1C[C@H]1CC[C@@H]([C@@H]2CC[C@H](Cn3cc(CC4CCCC4)nn3)O2)O1 as the molecule, how does the “activity change, negative = inhibition” value read?
A: inactive: 11.3%

Q: For Cc1ccc(C(=O)N/N=C/c2cccc(OC(=O)/C=C/c3ccco3)c2)cn1, which Potency is on record?
A: inconclusive: 0.522 µM [inhibitor, full curve, poor fit]

Q: For O=C(CN1CCN(c2ccccc2O)CC1)Nc1cc([N+](=O)[O-])ccc1Cl, which Potency is on record?
A: inconclusive: 5.86 µM [inhibitor, partial curve]

Q: Which Potency does the source give for O=C(Nc1ccccc1C(=O)Nc1ccncc1)c1ccccc1 here?
A: inconclusive: 18.5 µM [inhibitor, single point]

Q: With O=C(NCc1ccccc1Cl)c1ccccc1Oc1ccccc1 as the molecule, how does the Potency read?
A: inconclusive: 16.5 µM [inhibitor, single point]

Q: Which “activity change, negative = inhibition” value does the source give for Cc1cc(C)nc(/N=C(\N)Nc2ccc(OCc3ccccc3)cc2)n1 here?
A: inactive: 47.1%

Q: Which Potency does the source give for CC(Sc1ncnc2c1cnn2-c1ccccc1)C(=O)NCC1CCCO1 (stereo not given) here?
A: inconclusive: 9.28 µM [inhibitor, partial curve, poor fit]

Q: For O=C(CN1C(=O)COc2ccc(Cl)cc21)Nc1ccccn1, which Potency is on record?
A: inconclusive: 9.28 µM [inhibitor, single point]

Q: Which Potency does the source give for CCN(CC)S(=O)(=O)c1ccc(N2CC(C(=O)NC3(C)CCS(=O)(=O)C3)CC2=O)cc1 (stereo not given) here?
A: inconclusive: 9.28 µM [inhibitor, partial curve, poor fit]

Q: Which Potency does the source give for COc1ccc(-c2cc(C(=O)Nc3ccc(S(=O)(=O)Nc4ncccn4)cc3)c3ccccc3n2)cc1 here?
A: inconclusive: 9.28 µM [inhibitor, single point]

Q: For O=C(c1ccccc1F)N1CCN(c2ccc([N+](=O)[O-])cc2-n2cccc2)CC1, which Potency is on record?
A: inconclusive: 13.1 µM [inhibitor, partial curve, poor fit]

Q: Which Potency does the source give for Cc1ccc2c(CC(=O)O)coc2c1C here?
A: inconclusive: 0.262 µM [inhibitor, full curve, poor fit]

Q: Which Potency does the source give for CCCOc1ccc(Cn2c(=O)oc3ccc(C)cc32)cc1 here?
A: inconclusive: 18.5 µM [inhibitor, single point]

Q: Which “activity change, negative = inhibition” value does the source give for Cc1onc(-c2ccccc2Cl)c1C(=O)N1CCN(C)CC1 here?
A: inactive: 44.4%

Q: With CCOC(=O)c1sc(NC(=O)C2C3C=CC(C3)C2C(=O)O)nc1C (stereo not given) as the molecule, how does the “activity change, negative = inhibition” value read?
A: inactive: -3.96%

Q: For O=C(Nc1ccc(Br)cc1)c1ccc(CSC2=NCCS2)cc1, which Potency is on record?
A: inconclusive: 9.28 µM [inhibitor, single point]

Q: With FC(F)(F)Oc1ccc(NC(=S)NCc2ccccc2)cc1 as the molecule, how does the Potency read?
A: inconclusive: 16.5 µM [inhibitor, single point]

Q: For CCNc1ccc2noc3c2c1C(=O)c1ccccc1-3, which Potency is on record?
A: inconclusive: 18.5 µM [inhibitor, single point]

Q: Which Potency does the source give for CC(C)(CNC(=O)C1CCN(S(=O)(=O)c2cc([N+](=O)[O-])ccc2Cl)CC1)N1CCOCC1 here?
A: inconclusive: 2.33 µM [inhibitor, partial curve, poor fit]

Q: Which Potency does the source give for Cc1ccc(-c2csc(N3CCN(c4cc5c(cc4Cl)nc(-c4ccncc4)n5CCN4CCCCC4)CC3)n2)cc1 here?
A: active: 3.29 µM

Q: With CCOC(=O)c1[nH]nc(C(=O)c2ccc(Br)cc2)c1O as the molecule, how does the “activity change, negative = inhibition” value read?
A: inactive: 14.8%

Q: With Cc1cccc(CCNS(=O)(=O)c2cnc[nH]2)c1 as the molecule, how does the Potency read?
A: inconclusive: 0.117 µM [inhibitor, full curve]

Q: For Cc1occc(=O)c1OCc1c(F)cccc1Cl, which “activity change, negative = inhibition” value is on record?
A: inactive: 21.5%

Q: With CC(NS(=O)(=O)c1ccc2c(c1)CC(=O)N2C)c1ccccc1 (stereo not given) as the molecule, how does the Potency read?
A: inconclusive: 10.4 µM [inhibitor, single point]

Q: Which Potency does the source give for CCOc1ccccc1N1CN(CC)CNC1=S here?
A: inconclusive: 0.0657 µM [inhibitor, full curve, poor fit]

Q: For COc1cc2c(cc1OC)C(C(=O)N1CCC3(CC1)OCCO3)C(c1ccccc1F)N(C)C2=O (stereo not given), which Potency is on record?
A: inconclusive: 18.5 µM [inhibitor, single point]

Q: With COc1ccccc1NC(=O)CCN1C(=O)C2CC=CCC2C1=O (stereo not given) as the molecule, how does the Potency read?
A: inconclusive: 10.4 µM [inhibitor, single point]

Q: For CCOC(=O)N1CCC(Nc2c(NCCCN(C)Cc3ccccc3)c(=O)c2=O)CC1, which “activity change, negative = inhibition” value is on record?
A: inactive: 6.33%

Q: Which Potency does the source give for O=C(O)Cc1cccc2ccccc12 here?
A: inactive

Q: For O=C(CCNC(=O)C1CCN(S(=O)(=O)c2ccccc2)CC1)Nc1cccc(C(F)(F)F)c1, which “activity change, negative = inhibition” value is on record?
A: inactive: -29.6%

Q: For COC(=O)c1cc(OC)c(OC)cc1NC(=O)CN1CCCCC1, which “activity change, negative = inhibition” value is on record?
A: inactive: 7.43%

Q: With Cc1c(/C=N\NC(=O)C2(C)CC2(Cl)Cl)cnn1C (stereo not given) as the molecule, how does the “activity change, negative = inhibition” value read?
A: inactive: 16.2%

Q: For COc1cccc(CNC(=O)CCc2nc3cc(S(=O)(=O)N4CCOCC4)ccc3n2C)c1, which Potency is on record?
A: inconclusive: 16.5 µM [inhibitor, partial curve, poor fit]

Q: With NC(=O)CSc1nc2ccccc2c(=O)n1Cc1ccco1 as the molecule, how does the Potency read?
A: inconclusive: 3.7 µM [inhibitor, partial curve]

Q: For CCCCNC(=S)N1CCN(C(c2ccccc2)c2ccccc2)CC1, which “activity change, negative = inhibition” value is on record?
A: inactive: 16.6%

Q: Which Potency does the source give for COc1ccc(S(=O)(=O)N2CCOCC2)cc1NC(=O)c1sccc1C here?
A: inconclusive: 13.1 µM [inhibitor, partial curve]

Q: Which “activity change, negative = inhibition” value does the source give for Cc1cc(C)n(CCN(C)C(=O)CCc2nnc(CCC3CCCCC3)o2)n1 here?
A: inactive: 21.8%

Q: With CCCCCCSc1ccc([C@@H]2[C@H]3C(=O)N(C)C(=O)[C@H]3[C@]3(C(=O)OC)CCCCN23)cc1 as the molecule, how does the Potency read?
A: active: 11.7 µM

Q: Which Potency does the source give for CCn1c(CSCc2ccccc2)n[nH]c1=S here?
A: inconclusive: 18.5 µM [inhibitor, single point]

Q: For NC(CC(=O)OC1CCCCC1)C(=O)OC1CCCCC1 (stereo not given), which “activity change, negative = inhibition” value is on record?
A: inactive: -10.3%

Q: For O=C1Nc2ccccc2/C1=C/c1nc2ccccc2c(=O)n1-c1ccc(O)cc1, which Potency is on record?
A: inconclusive: 5.22 µM [inhibitor, partial curve]

Q: With CC(=O)c1ccc(OCCCC(=O)Nc2ccc(C)c(S(=O)(=O)N3CCCCC3)c2)cc1 as the molecule, how does the Potency read?
A: inconclusive: 14.7 µM [inhibitor, partial curve, poor fit]

Q: With COc1cc(N=c2oc3c(C)ncc(CO)c3cc2C(N)=O)cc(OC)c1OC as the molecule, how does the Potency read?
A: inconclusive: 0.233 µM [inhibitor, full curve, poor fit]

Q: For O=c1[nH]nc(-c2cccs2)c2ccccc12, which “activity change, negative = inhibition” value is on record?
A: inactive: 10.2%

Q: For Cc1ccc(S(=O)(=O)NC2CC(C)(C)N(O)C(C)(C)C2)cc1, which Potency is on record?
A: inconclusive: 5.22 µM [inhibitor, partial curve, poor fit]

Q: For COc1ccccc1C(=O)Nc1ccc2nc3n(c(=O)c2c1)CCCC3, which Potency is on record?
A: active: 0.522 µM

Q: Which “activity change, negative = inhibition” value does the source give for CC1=NN(Cc2cc(C(C)(C)C)c(O)c(C(C)(C)C)c2)C(=O)C1 here?
A: inactive: 1.43%

Q: Which Potency does the source give for Cc1cc2cc(CN(Cc3ccc4c(c3)OCO4)C(=O)c3ccco3)c(=O)[nH]c2cc1C here?
A: inconclusive: 0.0029 µM [inhibitor, full curve, poor fit]

Q: For CCCN(CCC)c1nc(NC2CCN(C(=O)OCC)CC2)nc(OC)n1, which Potency is on record?
A: inconclusive: 0.185 µM [inhibitor, full curve, poor fit]

Q: For CCc1nnc(NC(=O)c2ccc3ncsc3c2)s1, which “activity change, negative = inhibition” value is on record?
A: inactive: 37.7%

Q: For Cc1cccn2c(CN(C)C3CCOC3)c(C(=O)N3CCCCC3)nc12 (stereo not given), which Potency is on record?
A: inconclusive: 11.7 µM [inhibitor, single point]

Q: Which Potency does the source give for CC1(C)CC(NC(=O)c2cc(COc3cccc(C(F)(F)F)c3)on2)CCO1 (stereo not given) here?
A: inconclusive: 10.4 µM [inhibitor, single point]

Q: For O=C(N/N=C/c1cccc([N+](=O)[O-])c1)c1cc(-c2ccc3c4c(cccc24)CC3)n[nH]1, which Potency is on record?
A: inconclusive: 4.15 µM [inhibitor, single point]

Q: With COc1ccc(CN2CCNC(=O)C2CC(=O)NCCc2nc(C)c(C)s2)c(OC)c1 (stereo not given) as the molecule, how does the Potency read?
A: inconclusive: 9.28 µM [inhibitor, partial curve, poor fit]

Q: With CC1=C(C(=O)N2CCCC(N3CCN(c4ccccc4F)CC3)C2)OCCO1 (stereo not given) as the molecule, how does the “activity change, negative = inhibition” value read?
A: inactive: -102%

Q: For COc1cccc(OC)c1C(=O)NC(=S)Nc1ccc2oc(-c3ccncc3)nc2c1, which “activity change, negative = inhibition” value is on record?
A: inactive: 3.62%

Q: Which Potency does the source give for CCC(C)c1ccc(NC(=S)NCCn2cc(Br)cn2)cc1 (stereo not given) here?
A: inconclusive: 11.7 µM [inhibitor, single point]

Q: With CCOC(=O)C1=C2c3cc(OC)c(OC)cc3CC(C)(C)N2C(=O)C1=O as the molecule, how does the Potency read?
A: inconclusive: 0.586 µM [inhibitor, partial curve, poor fit]

Q: For O=S(=O)(NCc1ccco1)c1cccc(S(=O)(=O)N2CCCCC2)c1, which Potency is on record?
A: inconclusive: 0.738 µM [inhibitor, partial curve]

Q: With O=C(c1ccc(F)cc1F)N1CCC(N2CCC(C(=O)N3CCOCC3)CC2)CC1 as the molecule, how does the Potency read?
A: inconclusive: 18.5 µM [inhibitor, single point]

Q: Which Potency does the source give for COc1ccccc1/C=C(/CC(=O)NCc1ccccc1)c1nc2ccccc2s1 here?
A: inconclusive: 18.5 µM [inhibitor, single point]

Q: With Cc1cc(C)c2ccc(N)nc2c1O as the molecule, how does the “activity change, negative = inhibition” value read?
A: inactive: 196%

Q: Which Potency does the source give for CN(C)CCN(C(=O)/C=C/c1cccs1)c1nc2ccc(F)cc2s1 here?
A: active: 10.4 µM

Q: With NC(=O)[C@H]1CC2(CC(c3cccc(NC(=O)COc4ccc(Cl)cc4)c3)=NO2)CN1C(=O)c1ccc(Cl)cc1 (stereo not given in full) as the molecule, how does the Potency read?
A: inconclusive: 14.7 µM [inhibitor, partial curve, poor fit]
